Data on 17 sequences can be found in the supplement of paper PMC12764529.

Data set [1] is described as follows: folding stability dG unfold from trypsin proteolysis; higher = more stable. The method in brief:
(§1)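 K50 was inferred by Bayesian fitting of sequencing counts obtained after protease digestion of designed mini-proteins. Unfolding free energy was derived by comparison with a sequence-predicted unfolded-state K50 and a shared folded-state K50, for each protease or both combined. The mini-proteins were under 80 residues, had no cysteine, were carried in a PA-tagged cDNA display construct, and were kept only if AlphaFold2 dimer inter-PAE exceeded 15.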

A short description of data set [2]: folding stability dG unfold from chymotrypsin proteolysis; higher = more stable. Put shortly:
as §1

A short description of data set [3]: folding stability dG unfold (combined trypsin and chymotrypsin); higher = more stable. Put shortly: as §1

± gives the half width of the 95% confidence interval. For many entries, trypsin and chymotrypsin gave values far apart.

For “SAGGSMSPDTVVESVEVTEVTVPVTLDDVPGAEVEVLTVTTTTTTVTPEGQLTSTTTTTTVPAAALSAGGSA [r2_448_JUSTAS]”, the results for the “folding stability dG unfold” value in data set [1], in data set [2] and in data set [3] were 1.69 ± 0.056 kcal/mol, -0.376 ± 0.078 kcal/mol and 0.886 ± 0.044 kcal/mol, respectively.

As to “SNPVLSVGRLEDAIVLAVFDPEAGTVHVLAINPDTGALAFATAKVKKIDPETGVIEVDFTVNAHPDAKVLPS [r1_234_TrMRF]”, the “folding stability dG unfold” value worked out at 1.44 ± 0.045 kcal/mol in data set [1], 3.74 ± 0.084 kcal/mol in data set [2] and 3.11 ± 0.095 kcal/mol in data set [3].

In the case of “SAGGSAMVTVEIKFPDGSTKTITYPVPSSLSPEEVRAVAEEIAKELAEKEGKPGLPVEVVKITFEPSAGGSA [r15_463_JUSTAS]”, the “folding stability dG unfold” value in data set [1] came to 4.02 ± 0.14 kcal/mol; in data set [2] it was 1.38 ± 0.02 kcal/mol; in data set [3], 3.13 ± 0.11 kcal/mol.

For the sequence “SAGGSAGGSAMLVVTVPPSVEATVTITLSDGSVLTYTLPPDATLTIDSETFKNVKPVTVTRSSAGGSAGGSA [r18_210_JUSTAS]”, the “folding stability dG unfold” value in data set [1] was -0.206 ± 0.37 kcal/mol; in data set [2], 1.8 ± 0.18 kcal/mol; in data set [3], 0.938 ± 0.17 kcal/mol.

As to “SAGGSAGGMIKITITVPPGVSPEFVREKIAPLGVEVLSVEPLPDGTHRVTIEIPPEITKNPELLSAGGSAGG [r6_470_JUSTAS]”, the results for the “folding stability dG unfold” value in data set [1], in data set [2] and in data set [3] were 1.68 ± 0.051 kcal/mol, 1.18 ± 0.023 kcal/mol and 1.42 ± 0.044 kcal/mol, respectively.

Consider “SMGYLKIKLKLVFVFPENDPSKKMPIKELIKKIAEELGIEAKIPSFSLLEKDPEKGIYRVEADVEIIIPGSA [r9_107_TrMRF]”, for which the “folding stability dG unfold” value in data set [1] turned out to be 2.56 ± 0.15 kcal/mol; in data set [2], 4.66 ± 0.13 kcal/mol; in data set [3], 3.67 ± 0.41 kcal/mol.

As to “SAGGSMKVERSESGTITITFSTSSPEEVEKIKEEAEKKGMKYELKYDPNNNIWTITFEVPKELLEKSAGGSA [r2_224_JUSTAS]”, the entries for the “folding stability dG unfold” value in data set [1], in data set [2] and in data set [3] were 1.13 ± 0.085 kcal/mol, 4.41 ± 0.14 kcal/mol and 4.07 ± 0.32 kcal/mol, respectively.

Regarding “SAGGSAGGSAGLPANPALQNQVVPVELKVEVEVEELPDGSVRLRLKVEFGDLTLEFYFAGPLSAGGSAGGSA [r18_335_TrMRF]”, the figures for the “folding stability dG unfold” value in data set [1], in data set [2] and in data set [3] were 2.16 ± 0.11 kcal/mol, 4.23 ± 0.066 kcal/mol and 3.87 ± 0.089 kcal/mol, respectively.

Regarding “SAGGSAGGSAGNMEVIEEVEFTFPGLGVKISVSIFKTDGGIVIMIDIEIPMPPEDRKKFKSAGGSAGGSAGG [r17_431_TrROS]”, the “folding stability dG unfold” value in data set [1] came out at 0.857 ± 0.097 kcal/mol; in data set [2], 1.61 ± 0.18 kcal/mol; in data set [3], 1.25 ± 0.15 kcal/mol.

As for “SAGGSAGGSAGKKKKVKKIEIYLFNKDGKLIAKAEIEEKDGKLIIKIEVYKTKDGKEIPISAGGSAGGSAGG [r11_874_TrROS_Hall]”, the “folding stability dG unfold” value in data set [1] is 2.15 ± 0.12 kcal/mol; in data set [2], 4.68 ± 0.12 kcal/mol; in data set [3], 4.24 ± 0.27 kcal/mol.

Regarding “SAGGSAGGSAGGSVSIAREALEEKGEPVVIRVRNADGEEEDVVLPDDPEDIPGKEVVEVSSAGGSAGGSAGG [r7_998_TrMRF]”, the “folding stability dG unfold” value was -0.381 ± 0.13 kcal/mol in data set [1], 1.78 ± 0.03 kcal/mol in data set [2] and 1.34 ± 0.049 kcal/mol in data set [3].

With “SAGGAPLPPSLRALAERLRAEGHEVTIVRHGDRYVLFVNGKTVETEEEVEKLKKVPGIKEIIVEPAPSAGGS [r16_275_JUSTAS]”, the results for the “folding stability dG unfold” value in data set [1], in data set [2] and in data set [3] were 0.45 ± 0.18 kcal/mol, 3.17 ± 0.074 kcal/mol and 2.58 ± 0.17 kcal/mol, respectively.

In the case of “SAGGSAGGSAGGSNWVMVTVEFEMTVYKMDPNGGWEPETMTIKVTAMLPPGQPLEEFIDSAGGSAGGSAGGS [r4_126_TrROS]”, the “folding stability dG unfold” value in data set [1] came to 2.29 ± 0.14 kcal/mol; in data set [2], 4.77 ± 0.19 kcal/mol; in data set [3] it was 4.32 ± 0.42 kcal/mol.

Turning to “SAGGSAGGSAGTLKLTLEVTVTRLYRLPDGSGSLVAETVRVRVEVELEVDELDEDGRLLLSAGGSAGGSAGG [r11_558_TrROS_Hall]”, the “folding stability dG unfold” value in data set [1] is 3.08 ± 0.14 kcal/mol; in data set [2], 3.269 ± 0.024 kcal/mol; in data set [3] it was 3.18 ± 0.07 kcal/mol.

For the sequence “SAGGSAGGSAGGNWVMIEFNFPPGKKLKIEIPNGRDIQRHRDPDNGTLWFMIPPEAAEDFSAGGSAGGSAGG [r7_155_TrROS]”, the entries for the “folding stability dG unfold” value in data set [1], in data set [2] and in data set [3] were 0.649 ± 0.11 kcal/mol, 0.509 ± 0.26 kcal/mol and 0.636 ± 0.27 kcal/mol, respectively.

As for “SAGGSMTLRLRVEVEVRTLTRREDGSLSLSRSRVELEVEVRLPPAPPPPPLTAEELAALLGDPELLSAGGSA [r2_340_TrROS_Hall]”, the “folding stability dG unfold” value in data set [1] is 1.56 ± 0.04 kcal/mol; in data set [2], 4.021 ± 0.021 kcal/mol; in data set [3], 3.52 ± 0.096 kcal/mol.

In the case of “SAGGMLVYKIKITTEDGEEIEITIEAESEEEAKAAAEELAKKLGLEIKKIEIEKIELPEEVSEEELKSAGGS [r8_364_TrROS_Hall]”, the “folding stability dG unfold” value stood at 1.8 ± 0.074 kcal/mol in data set [1], 4.41 ± 0.082 kcal/mol in data set [2] and 4.08 ± 0.12 kcal/mol in data set [3].
